According to patent EP1828247B1:
Results are given in words; binding and its absence hold for the method and conditions named. A result given as binding can be weak or reduced; the word gives no strength.

Target: WNV E protein of the inactivated WNV preparation (West Nile virus)
Experiment: Western blot or immunoprecipitation

B1: CR4361 (antibody, V domains shown)
VH: EVQLVQSGAEVKKPGESLKISCKASGFSFSTYWIGWVRQMPGKGLEWMGIIYPADSDTRYSPSFQGQVTISADKSISTAYLQWSSLKASDTAMYYCARLRGPYYDFWNGYRETHDAFNVWGQGTMVTVSS
VL: DVVMTQSPDSLAVSLGERATINCKSSQNILDNSDNKNFLAWYQQKPGQPPKLLIYWASARESGVPDRFSGSGSGTDFTLTISSLQAEDVALYYCQQYYNTPITFGQGTRLEIKR
In the case of B1, the binding is reported as “binds”.

B2: CR4353 (antibody, V domains shown)
VH: QVQLVESGGGVVQPGRSLRLSCAASGFTFSNYAMHWVRQAPGKGLEWVAVISYDGGNKYYADSVKGRFTMSRDNSKNTLYLQMNSLRAEDTAVYYCARDFWSGYSMVDSYYYYMDVWGQGTTVTVSS
VL: ETTLTQSPGTLSLSPGERATLSCRASQSVSNTFLAWYQQKPGQAPRLLIYGASSRATGIPDRFSGSGSGTDFTLTISRLEPEDFAAYYCQQYGSSLTFGPGTKVDIKR
B2 was tested, and the binding was “binds”.
